These are yes or no findings as the source states them, for the method shown. Binding seen in cells or lysates may run through a third protein. A yes stands for co-enrichment or nearness to the bait. Other partners may have been found. Tags and fused reporters may be left off the sequences shown.
Experiments:
MBOAT7-EGFP (human) = target: T1, MBOAT7-EGFP (human) (UniProt Q96N66); test: affinity purification with mass spectrometry
T1 sequence: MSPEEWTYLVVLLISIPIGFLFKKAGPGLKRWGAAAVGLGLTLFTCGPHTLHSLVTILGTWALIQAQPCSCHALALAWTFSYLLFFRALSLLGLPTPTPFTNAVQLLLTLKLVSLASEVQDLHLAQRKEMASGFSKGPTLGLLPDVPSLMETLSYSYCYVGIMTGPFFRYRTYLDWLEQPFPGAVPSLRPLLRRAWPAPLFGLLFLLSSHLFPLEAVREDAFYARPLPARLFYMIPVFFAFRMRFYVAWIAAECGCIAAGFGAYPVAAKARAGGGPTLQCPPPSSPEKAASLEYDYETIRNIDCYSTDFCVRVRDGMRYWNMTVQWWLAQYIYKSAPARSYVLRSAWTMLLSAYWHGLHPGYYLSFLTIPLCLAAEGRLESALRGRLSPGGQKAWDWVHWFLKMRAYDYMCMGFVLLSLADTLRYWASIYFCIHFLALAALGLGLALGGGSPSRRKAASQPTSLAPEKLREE

The chains behind the UniProt entries cited, without tags or fusion partners.
UniProt P62820: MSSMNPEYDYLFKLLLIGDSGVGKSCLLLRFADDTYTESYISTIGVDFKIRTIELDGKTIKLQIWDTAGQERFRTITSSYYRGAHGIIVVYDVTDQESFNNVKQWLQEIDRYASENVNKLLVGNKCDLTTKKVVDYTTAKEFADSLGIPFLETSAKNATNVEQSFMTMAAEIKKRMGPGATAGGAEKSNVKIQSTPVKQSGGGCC
UniProt P51149: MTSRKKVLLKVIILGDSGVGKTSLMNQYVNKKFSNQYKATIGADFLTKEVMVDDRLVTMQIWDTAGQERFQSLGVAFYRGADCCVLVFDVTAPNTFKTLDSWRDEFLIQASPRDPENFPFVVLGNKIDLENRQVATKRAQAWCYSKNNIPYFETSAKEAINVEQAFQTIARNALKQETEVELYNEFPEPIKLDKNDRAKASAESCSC
UniProt Q9NP72: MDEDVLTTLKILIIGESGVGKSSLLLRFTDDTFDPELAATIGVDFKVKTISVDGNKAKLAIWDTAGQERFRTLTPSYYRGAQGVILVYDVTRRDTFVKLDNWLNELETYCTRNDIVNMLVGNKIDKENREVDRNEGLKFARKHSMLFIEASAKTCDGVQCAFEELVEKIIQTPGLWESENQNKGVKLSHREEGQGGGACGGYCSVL

[1] = target: T2, APEX2-CDS2 fusion protein (UniProt O95674); test: proximity labelling
T2 sequence: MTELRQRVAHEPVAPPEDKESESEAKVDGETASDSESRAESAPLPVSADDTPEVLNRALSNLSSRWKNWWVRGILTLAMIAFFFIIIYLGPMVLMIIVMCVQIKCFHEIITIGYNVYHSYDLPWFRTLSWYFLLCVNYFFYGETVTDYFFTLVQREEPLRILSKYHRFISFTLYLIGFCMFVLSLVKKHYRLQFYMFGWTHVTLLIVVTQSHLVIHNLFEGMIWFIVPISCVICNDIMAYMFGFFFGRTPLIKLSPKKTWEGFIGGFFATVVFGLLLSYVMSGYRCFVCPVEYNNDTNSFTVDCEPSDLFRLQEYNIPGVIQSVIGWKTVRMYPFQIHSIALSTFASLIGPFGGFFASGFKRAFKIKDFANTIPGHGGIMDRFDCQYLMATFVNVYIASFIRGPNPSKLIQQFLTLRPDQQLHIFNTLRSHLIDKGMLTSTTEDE

Molecule | binding (MBOAT7-EGFP (human)) | binding [1]
RAB1A (from UniProt P62820 1-205) | binds | 
RAB7A (from UniProt P51149 1-207) | binds | 
RAB18 (from UniProt Q9NP72 1-206) | binds | 
MBOAT7 (in the CDS2 proximal proteome) (protein, UniProt Q96N66 1-472) MSPEEWTYLVVLLISIPIGFLFKKAGPGLKRWGAAAVGLGLTLFTCGPHTLHSLVTILGTWALIQAQPCSCHALALAWTFSYLLFFRALSLLGLPTPTPFTNAVQLLLTLKLVSLASEVQDLHLAQRKEMASGFSKGPTLGLLPDVPSLMETLSYSYCYVGIMTGPFFRYRTYLDWLEQPFPGAVPSLRPLLRRAWPAPLFGLLFLLSSHLFPLEAVREDAFYARPLPARLFYMIPVFFAFRMRFYVAWIAAECGCIAAGFGAYPVAAKARAGGGPTLQCPPPSSPEKAASLEYDYETIRNIDCYSTDFCVRVRDGMRYWNMTVQWWLAQYIYKSAPARSYVLRSAWTMLLSAYWHGLHPGYYLSFLTIPLCLAAEGRLESALRGRLSPGGQKAWDWVHWFLKMRAYDYMCMGFVLLSLADTLRYWASIYFCIHFLALAALGLGLALGGGSPSRRKAASQPTSLAPEKLREE |  | binds

Source: publication doi:10.1101/2025.08.26.672501
